## Primary screen of a compound library

Measurements from “University of Dundee, Small-Polar-MMV Screening Library” (2021), ChEMBL document CHEMBL3988442.

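Viability assay of Plasmodium falciparum sporozoites; the read-out is not stated. The concentration is filed as 10 mM, unlikely as a test dose, so the dose is not known. The record gives no direction; compounds that gave an IC50 in retests scored well above the rest, so higher reads as lower viability. Strong results were mostly tested again. Size under these conditions: about 34,000 compounds, about 280 of them at 50% or above in at least one test.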

Values are the deposited “Percent Effect”, in %.
How 0% and 100% were set is not recorded. Most values in the screen are low, and negative values occur.
The compounds are a random part of those screened.
Two or more numbers in one place are separate tests of the same structure; such repeats can differ widely.

| # | Compound | effect |
|---|---|---|
| 1 | `CCOC(=O)c1ccc(CNC(=O)c2ccc(Cl)cn2)o1` | -1.6 |
| 2 | `CS(=O)(=O)N1CCc2ccc(=O)n(CCN3CCCC3)c2CC1.O=C(O)C(F)(F)F` | 15.94 |
| 3 | `Cc1cc(-c2cnc(C)nc2CN(C)C(=O)c2cc(C3CC3)on2)on1` | -4.145 |
| 4 | `COc1ccccc1-c1ccc(C2CCCN(C(C)=O)C2)nc1` (centres undefined) | 4.467 |
| 5 | `CCCS(=O)(=O)N1CCN(c2cc(-n3nc(C)cc3C)nc(C)n2)CC1` | -10.25 |
| 6 | `CCCn1[nH]cc/c1=N\C(=O)CN1CCc2cnc(C(C)C)nc2C1` | 0.3741 |
| 7 | `O=C(NCc1ccccc1)c1nnc2ccc(N3CCOCC3)cc2n1` | 1.096 |
| 8 | `CCn1ncnc1C(C)NC(=O)C1CCN(C(C)C)CC1` (centres undefined) | -7.151 |
| 9 | `Cc1cccc(C)c1OCCC(=O)N1CCC(c2nncn2C)CC1` | -7.264 & -9.158 & -0.8679 |
| 10 | `[H][C@@]12C[C@@H](O)C[C@]1([H])CN(Cc1cc(C(C)(C)C)ccc1OCC(=O)O)C2` | 7.802 |
| 11 | `Nc1nccc(C2CCCN(CC3CC3)C2)n1` (centres undefined) | 1.124 |
| 12 | `Cc1cccc(CN2CCOC3(CCCN(CC(=O)N(C)C)C3)C2)n1.O=C(O)C(F)(F)F.O=C(O)C(F)(F)F` (centres undefined) | 8.433 |
| 13 | `[H][C@@]12CN(C(=O)COCC)C[C@]1([H])C(=O)N(CC1CC1)C2` | 8.554 |
| 14 | `Cc1noc(C)c1CN(C)C(=O)NC1CCOCC1` | 4.266 |
| 15 | `O=C(CCN1CCOC(Cn2cccn2)C1)NC1CCCCC1` (centres undefined) | 7.427 |
| 16 | `Cn1cc(C(=O)N2CCN(Cc3ccccn3)CC2)ccc1=O` | -3.259 |
| 17 | `CC(Cn1cccn1)NCC(=O)NC1CCOCC1` (centres undefined) | -2.553 |
| 18 | `CCOc1ccccc1C(CC(=O)Nc1nc(C)cs1)NC(C)=O` (centres undefined) | -15.5 |
| 19 | `CCn1cnnc1CNC(=O)Cc1ccc2c(c1)OCCO2` | 2.366 |
| 20 | `COCCCn1c(CN2CCCC(O)C2)cnc1S(=O)(=O)C1CCCC1` (centres undefined) | 3.272 |
| 21 | `Cn1cnnc1C1CCN(c2cncc(-n3cccn3)n2)CC1` | -9.696 |
| 22 | `Cc1cccc(-c2noc(CN3CCCCC3Cn3cncn3)n2)c1` (centres undefined) | 0.9201 |
| 23 | `CNc1nc(CNC(=O)Nc2cccc(CSC)c2)cs1` | -9.741 |
| 24 | `CN1CCC/C1=N\S(=O)(=O)c1ccc(NC(=O)c2ccc(Cl)s2)cc1` | 12.56 |
| 25 | `Cc1cc(CNC(=O)Nc2ccc(C(=O)NC3CC3)cc2)no1` | -5.818 |
| 26 | `Cc1n[nH]c(C)c1CC(=O)N1CCC(O)(CN2CCOCC2)C1` (centres undefined) | 2.184 |
| 27 | `CCC(=O)N1CCCC1c1nccnc1Nc1nc(C)cc(C)n1` (centres undefined) | -14.61 |
| 28 | `O=C(O)C(F)(F)F.[H][C@@]12CCN(c3cnccn3)C[C@]1([H])CN(C(=O)CC(C)C)C2` | 13 |
| 29 | `COCCCNC1CCCN(c2ccc(C)nn2)C1` (centres undefined) | 2.957 |
| 30 | `CN(C)CCOc1ccc(CNC(=O)c2cccc3[nH]ncc23)cc1` | 12.46 |
| 31 | `CCN1CCCC(CNC(=O)C2(c3cc(C)cc(C)c3)CCC2)C1` (centres undefined) | 5.352 |
| 32 | `CC1=Nc2c(c(=O)[nH]n2C(C)C)C(c2ccc3ncccc3c2)S1` (centres undefined) | -17.66 & -14.35 |
| 33 | `Cc1cc(N2CCOC(C)(C(=O)N(C)C)C2)ncn1` (centres undefined) | -2.872 |
| 34 | `Cc1nnc(C(NS(=O)(=O)c2cc(C)c(F)cc2F)C(C)C)[nH]1` (centres undefined) | -12.91 |
| 35 | `Cl.NCC(=O)N1CCCC1c1n[nH]cc1-c1ccccc1F` (centres undefined) | 15.8 |
| 36 | `Cc1c(C(=O)N2CCCC(n3cncn3)C2)cnn1C` (centres undefined) | 1.823 |
| 37 | `O=C(O)C(F)(F)F.O=C(O)C(F)(F)F.[H][C@@]12CCC(=O)N(Cc3ccncc3)[C@]1([H])CCN2Cc1ccc(C)s1` | 14.98 |
| 38 | `O=C(O)C(F)(F)F.O=C(O)C(F)(F)F.[H][C@@]12CN(Cc3cccs3)CCC[C@]1(C(=O)OCC)CN(C(C)C)C2` | 6.25 |
| 39 | `O=C(O)C(F)(F)F.[H][C@@]12CCN(c3ccc(C)nn3)[C@]1([H])CC[C@@H](C(=O)NCc1ccco1)O2` | -10.46 |
| 40 | `COCCNc1cc(C2CCCNC2)ccn1.Cl` (centres undefined) | 1.101 |
| 41 | `O=C([C@H]1CCCO1)N1CCc2ncnc(NC3CC3)c2CC1` | -7.892 |
| 42 | `Cn1ccnc1CN1CCN(CC(=O)NCc2ccccc2F)CC1` | 4.028 |
| 43 | `Cn1cnc(S(=O)(=O)N2CCCC2)c1Cl` | -6.719 |
| 44 | `CC(C)n1ncc2c1NC(=O)CC21C(=O)Nc2c(Cl)cc(Cl)cc21` (centres undefined) | -8.991 |
| 45 | `COc1cccc(CN(C)C(=O)CSc2ccc3c(c2)OCCO3)c1` | -38.92 & -47.34 & -12.51 |
| 46 | `Cc1nc(NC2CCCCC2)cc(C2CCCNC2)n1.Cl` (centres undefined) | 12.48 |
| 47 | `CC(C)N(C(=O)CN(C)C1CCc2ccccc21)C(C)C` (centres undefined) | 10.03 |
| 48 | `COc1c(CNC2CCOc3c(Cl)cccc32)c(C(C)C)nn1C` (centres undefined) | -8.275 & 7.174 & 17.96 |
| 49 | `Cc1cnn(CC2CCCCN2c2nn3cc(C)nc3s2)c1` (centres undefined) | 19.24 |
| 50 | `NS(=O)(=O)CCNC(=O)c1nnn(-c2ccc(F)cc2)c1C1CC1` | -13.53 |
| 51 | `[H][C@@]12C[C@@H](OCc3cccnc3)CN1CCN(C(=O)c1cnc(C)cn1)C2` | 5.241 |
| 52 | `CNCC(=O)N1CC(c2cc(Nc3ncccn3)nc(C)n2)C1.Cl` | -15.34 |
| 53 | `CSc1ccc(CNC(=O)NCC(O)c2cccc(F)c2)cc1` (centres undefined) | 7.553 |
| 54 | `CCC(NC(=O)c1nn(C)cc1C(=O)O)c1ccc(C)cc1` (centres undefined) | 2.584 |
| 55 | `O=C(NCC(O)c1cccc(F)c1)c1cccnc1O` (centres undefined) | -12.63 |
| 56 | `Cc1ccc(S(=O)(=O)NCCc2nnc[nH]2)c2cccnc12` | 6.618 |
| 57 | `O=C(O)C(F)(F)F.[H][C@@]12CCN(CC3CC3)C[C@@]1([H])O[C@@H](c1nc(C)no1)C2` | 4.581 |
| 58 | `Cc1noc(C)c1-c1ccc(C2CCCN2C(=O)c2ccncn2)nc1` (centres undefined) | 10.64 |
| 59 | `O=C(N[C@@H]1CCNC[C@H]1O)c1ccc(-c2ccc(F)cc2)cc1` | 12.67 |
| 60 | `CCOCC(O)CN1CCN(C(=O)CC(C)(C)C)CC1` (centres undefined) | 0.8 |
| 61 | `O=C(NCc1cc[nH]n1)NCC(c1ccc(F)cc1)N1CCOCC1` (centres undefined) | 4.026 |
| 62 | `[H][C@]12CC[C@@]3(N=C(c4ccccc4)NC3=O)[C@@]1([H])CN(C(=O)c1cccs1)C2` | -7.634 |
| 63 | `CC(NC(=O)NCCCc1n[nH]c(N)c1C#N)c1ccccc1` (centres undefined) | 15.54 |
| 64 | `COc1ccc2c3c1CN(S(C)(=O)=O)CC3=CC(C)(C)CO2` | -49.86 |
| 65 | `Cc1cc(C)n(-c2ccc(N3CCC4(CC3)OCCO4)nc2)n1` | -74.44 & 15.22 & -48.37 |
| 66 | `N#CCCN(Cc1cccnc1)C(=O)Cc1ccc(-n2cnnn2)cc1` | -3.622 |

8 of the entries, repeated:

{"compound": "COCCNc1cc(C2CCCNC2)ccn1.Cl", "stereo": "centres undefined", "effect": 1.101}
{"compound": "O=C([C@H]1CCCO1)N1CCc2ncnc(NC3CC3)c2CC1", "effect": -7.892}
{"compound": "Cc1n[nH]c(C)c1CC(=O)N1CCC(O)(CN2CCOCC2)C1", "stereo": "centres undefined", "effect": 2.184}
{"compound": "CN(C)CCOc1ccc(CNC(=O)c2cccc3[nH]ncc23)cc1", "effect": 12.46}
{"compound": "O=C(NCc1ccccc1)c1nnc2ccc(N3CCOCC3)cc2n1", "effect": 1.096}
{"compound": "Cn1cnc(S(=O)(=O)N2CCCC2)c1Cl", "effect": -6.719}
{"compound": "O=C(O)C(F)(F)F.[H][C@@]12CCN(c3cnccn3)C[C@]1([H])CN(C(=O)CC(C)C)C2", "effect": 13}
{"compound": "N#CCCN(Cc1cccnc1)C(=O)Cc1ccc(-n2cnnn2)cc1", "effect": -3.622}